Source: the supplement of paper PMC11006884
The list shows a part of the results, in another mix than the full data.

Chains of the proteins cited; added tags and fusions are not shown. Lines headed by an entry give the natural chain unless they say otherwise; changes in a name come on top.
UniProt P07814: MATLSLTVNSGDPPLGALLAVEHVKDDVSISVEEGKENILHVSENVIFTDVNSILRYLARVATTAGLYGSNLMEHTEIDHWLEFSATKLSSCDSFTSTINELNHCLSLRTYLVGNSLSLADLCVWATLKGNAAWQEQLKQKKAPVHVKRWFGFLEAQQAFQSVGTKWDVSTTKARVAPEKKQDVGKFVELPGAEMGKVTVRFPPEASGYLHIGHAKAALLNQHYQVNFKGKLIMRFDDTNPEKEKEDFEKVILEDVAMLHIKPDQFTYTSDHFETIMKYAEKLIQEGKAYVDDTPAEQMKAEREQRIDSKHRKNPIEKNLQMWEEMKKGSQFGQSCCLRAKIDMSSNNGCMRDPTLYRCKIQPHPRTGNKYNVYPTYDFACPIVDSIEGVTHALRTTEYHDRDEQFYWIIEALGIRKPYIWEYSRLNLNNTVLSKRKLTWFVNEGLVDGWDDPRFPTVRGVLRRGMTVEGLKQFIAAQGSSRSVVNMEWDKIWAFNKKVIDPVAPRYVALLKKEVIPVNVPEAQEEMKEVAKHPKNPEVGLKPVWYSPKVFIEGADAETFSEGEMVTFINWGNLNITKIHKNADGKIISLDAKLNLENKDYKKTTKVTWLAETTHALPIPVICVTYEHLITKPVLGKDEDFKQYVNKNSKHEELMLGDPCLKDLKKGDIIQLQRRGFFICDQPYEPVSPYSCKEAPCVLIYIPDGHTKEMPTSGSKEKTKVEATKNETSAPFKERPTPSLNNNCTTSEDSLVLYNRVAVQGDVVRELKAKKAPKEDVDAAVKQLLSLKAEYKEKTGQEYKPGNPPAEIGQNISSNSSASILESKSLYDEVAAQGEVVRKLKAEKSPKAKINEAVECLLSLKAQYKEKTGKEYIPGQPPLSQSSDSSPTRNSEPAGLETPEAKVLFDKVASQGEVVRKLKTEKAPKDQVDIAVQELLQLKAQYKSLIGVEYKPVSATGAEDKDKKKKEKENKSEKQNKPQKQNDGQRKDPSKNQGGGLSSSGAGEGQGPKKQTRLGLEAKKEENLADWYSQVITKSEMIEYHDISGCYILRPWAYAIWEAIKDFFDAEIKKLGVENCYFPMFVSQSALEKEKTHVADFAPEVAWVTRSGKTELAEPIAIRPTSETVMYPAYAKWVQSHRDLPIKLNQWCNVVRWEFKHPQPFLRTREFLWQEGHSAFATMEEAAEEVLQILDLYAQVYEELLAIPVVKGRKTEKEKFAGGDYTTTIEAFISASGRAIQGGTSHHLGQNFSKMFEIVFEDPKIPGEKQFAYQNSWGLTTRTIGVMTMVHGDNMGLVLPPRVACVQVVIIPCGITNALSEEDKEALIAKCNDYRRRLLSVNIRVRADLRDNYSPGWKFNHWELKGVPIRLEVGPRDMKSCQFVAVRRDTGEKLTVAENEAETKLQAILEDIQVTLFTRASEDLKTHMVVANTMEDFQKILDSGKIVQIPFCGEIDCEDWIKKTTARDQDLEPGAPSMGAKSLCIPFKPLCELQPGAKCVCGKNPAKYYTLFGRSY
UniProt P15927: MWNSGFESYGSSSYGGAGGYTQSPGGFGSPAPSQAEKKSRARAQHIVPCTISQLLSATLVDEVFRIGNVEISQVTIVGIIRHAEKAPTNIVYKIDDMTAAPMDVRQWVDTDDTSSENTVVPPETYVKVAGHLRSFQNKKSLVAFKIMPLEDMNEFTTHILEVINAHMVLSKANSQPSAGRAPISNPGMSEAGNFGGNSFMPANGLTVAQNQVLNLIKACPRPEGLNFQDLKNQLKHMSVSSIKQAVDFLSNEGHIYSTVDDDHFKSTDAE
UniProt P09110: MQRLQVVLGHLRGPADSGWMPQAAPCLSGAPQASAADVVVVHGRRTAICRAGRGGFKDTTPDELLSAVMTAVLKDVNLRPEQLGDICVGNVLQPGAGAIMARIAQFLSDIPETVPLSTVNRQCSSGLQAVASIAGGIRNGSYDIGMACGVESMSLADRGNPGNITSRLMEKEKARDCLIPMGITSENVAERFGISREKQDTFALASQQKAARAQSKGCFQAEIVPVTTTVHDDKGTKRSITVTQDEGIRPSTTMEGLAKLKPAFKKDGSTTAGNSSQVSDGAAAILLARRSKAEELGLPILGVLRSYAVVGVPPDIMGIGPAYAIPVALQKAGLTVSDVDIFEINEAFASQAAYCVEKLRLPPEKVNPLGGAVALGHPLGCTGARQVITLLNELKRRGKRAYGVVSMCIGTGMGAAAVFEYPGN
UniProt P14868: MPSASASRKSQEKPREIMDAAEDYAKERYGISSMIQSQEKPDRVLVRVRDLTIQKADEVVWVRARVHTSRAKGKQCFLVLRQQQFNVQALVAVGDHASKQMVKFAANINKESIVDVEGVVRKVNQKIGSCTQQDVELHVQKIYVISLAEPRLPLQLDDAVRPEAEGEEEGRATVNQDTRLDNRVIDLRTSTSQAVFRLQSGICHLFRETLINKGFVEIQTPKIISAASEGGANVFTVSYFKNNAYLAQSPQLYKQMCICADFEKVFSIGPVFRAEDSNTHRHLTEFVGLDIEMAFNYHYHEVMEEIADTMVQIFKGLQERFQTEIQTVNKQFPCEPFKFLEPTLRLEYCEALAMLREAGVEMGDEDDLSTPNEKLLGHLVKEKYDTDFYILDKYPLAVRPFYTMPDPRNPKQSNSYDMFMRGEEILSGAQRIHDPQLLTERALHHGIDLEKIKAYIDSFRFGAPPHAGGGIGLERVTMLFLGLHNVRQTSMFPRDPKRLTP
UniProt P11216: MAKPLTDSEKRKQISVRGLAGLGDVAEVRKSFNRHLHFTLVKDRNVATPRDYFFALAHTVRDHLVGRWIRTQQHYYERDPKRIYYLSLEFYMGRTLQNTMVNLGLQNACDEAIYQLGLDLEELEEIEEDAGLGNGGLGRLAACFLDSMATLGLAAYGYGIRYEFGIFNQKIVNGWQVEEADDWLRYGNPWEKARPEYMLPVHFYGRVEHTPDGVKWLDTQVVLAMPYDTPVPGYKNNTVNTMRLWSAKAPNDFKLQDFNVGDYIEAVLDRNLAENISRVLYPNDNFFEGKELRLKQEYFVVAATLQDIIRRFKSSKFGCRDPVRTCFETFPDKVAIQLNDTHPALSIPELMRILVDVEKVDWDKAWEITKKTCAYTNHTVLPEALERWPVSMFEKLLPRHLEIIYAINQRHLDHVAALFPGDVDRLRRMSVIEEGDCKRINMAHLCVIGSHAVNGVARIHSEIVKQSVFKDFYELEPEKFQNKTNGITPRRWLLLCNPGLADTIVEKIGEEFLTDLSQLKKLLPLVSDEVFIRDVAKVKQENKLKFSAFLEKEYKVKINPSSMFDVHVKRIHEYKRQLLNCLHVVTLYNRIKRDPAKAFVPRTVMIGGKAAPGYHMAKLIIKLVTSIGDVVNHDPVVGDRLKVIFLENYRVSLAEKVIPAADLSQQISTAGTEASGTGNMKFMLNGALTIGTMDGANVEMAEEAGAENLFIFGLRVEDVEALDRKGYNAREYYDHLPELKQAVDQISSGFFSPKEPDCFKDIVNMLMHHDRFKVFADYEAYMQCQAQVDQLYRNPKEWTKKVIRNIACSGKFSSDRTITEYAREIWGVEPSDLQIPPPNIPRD
UniProt P13797: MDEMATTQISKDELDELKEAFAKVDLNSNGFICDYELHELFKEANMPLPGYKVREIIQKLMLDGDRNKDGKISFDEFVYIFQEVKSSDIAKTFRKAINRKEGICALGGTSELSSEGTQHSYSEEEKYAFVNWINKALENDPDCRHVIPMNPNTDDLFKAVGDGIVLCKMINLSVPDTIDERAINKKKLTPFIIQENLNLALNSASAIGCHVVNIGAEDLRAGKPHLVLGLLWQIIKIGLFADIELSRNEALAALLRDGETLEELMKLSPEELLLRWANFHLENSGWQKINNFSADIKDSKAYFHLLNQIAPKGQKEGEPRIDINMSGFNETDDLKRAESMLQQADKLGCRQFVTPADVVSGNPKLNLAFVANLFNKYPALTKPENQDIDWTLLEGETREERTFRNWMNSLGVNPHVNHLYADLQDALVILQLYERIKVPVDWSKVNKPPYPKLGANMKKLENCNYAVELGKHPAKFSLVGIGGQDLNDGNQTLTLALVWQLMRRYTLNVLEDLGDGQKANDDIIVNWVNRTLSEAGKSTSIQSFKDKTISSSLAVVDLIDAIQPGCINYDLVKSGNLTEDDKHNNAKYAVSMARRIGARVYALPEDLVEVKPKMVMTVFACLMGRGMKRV
UniProt P12270, whole entry, looked up: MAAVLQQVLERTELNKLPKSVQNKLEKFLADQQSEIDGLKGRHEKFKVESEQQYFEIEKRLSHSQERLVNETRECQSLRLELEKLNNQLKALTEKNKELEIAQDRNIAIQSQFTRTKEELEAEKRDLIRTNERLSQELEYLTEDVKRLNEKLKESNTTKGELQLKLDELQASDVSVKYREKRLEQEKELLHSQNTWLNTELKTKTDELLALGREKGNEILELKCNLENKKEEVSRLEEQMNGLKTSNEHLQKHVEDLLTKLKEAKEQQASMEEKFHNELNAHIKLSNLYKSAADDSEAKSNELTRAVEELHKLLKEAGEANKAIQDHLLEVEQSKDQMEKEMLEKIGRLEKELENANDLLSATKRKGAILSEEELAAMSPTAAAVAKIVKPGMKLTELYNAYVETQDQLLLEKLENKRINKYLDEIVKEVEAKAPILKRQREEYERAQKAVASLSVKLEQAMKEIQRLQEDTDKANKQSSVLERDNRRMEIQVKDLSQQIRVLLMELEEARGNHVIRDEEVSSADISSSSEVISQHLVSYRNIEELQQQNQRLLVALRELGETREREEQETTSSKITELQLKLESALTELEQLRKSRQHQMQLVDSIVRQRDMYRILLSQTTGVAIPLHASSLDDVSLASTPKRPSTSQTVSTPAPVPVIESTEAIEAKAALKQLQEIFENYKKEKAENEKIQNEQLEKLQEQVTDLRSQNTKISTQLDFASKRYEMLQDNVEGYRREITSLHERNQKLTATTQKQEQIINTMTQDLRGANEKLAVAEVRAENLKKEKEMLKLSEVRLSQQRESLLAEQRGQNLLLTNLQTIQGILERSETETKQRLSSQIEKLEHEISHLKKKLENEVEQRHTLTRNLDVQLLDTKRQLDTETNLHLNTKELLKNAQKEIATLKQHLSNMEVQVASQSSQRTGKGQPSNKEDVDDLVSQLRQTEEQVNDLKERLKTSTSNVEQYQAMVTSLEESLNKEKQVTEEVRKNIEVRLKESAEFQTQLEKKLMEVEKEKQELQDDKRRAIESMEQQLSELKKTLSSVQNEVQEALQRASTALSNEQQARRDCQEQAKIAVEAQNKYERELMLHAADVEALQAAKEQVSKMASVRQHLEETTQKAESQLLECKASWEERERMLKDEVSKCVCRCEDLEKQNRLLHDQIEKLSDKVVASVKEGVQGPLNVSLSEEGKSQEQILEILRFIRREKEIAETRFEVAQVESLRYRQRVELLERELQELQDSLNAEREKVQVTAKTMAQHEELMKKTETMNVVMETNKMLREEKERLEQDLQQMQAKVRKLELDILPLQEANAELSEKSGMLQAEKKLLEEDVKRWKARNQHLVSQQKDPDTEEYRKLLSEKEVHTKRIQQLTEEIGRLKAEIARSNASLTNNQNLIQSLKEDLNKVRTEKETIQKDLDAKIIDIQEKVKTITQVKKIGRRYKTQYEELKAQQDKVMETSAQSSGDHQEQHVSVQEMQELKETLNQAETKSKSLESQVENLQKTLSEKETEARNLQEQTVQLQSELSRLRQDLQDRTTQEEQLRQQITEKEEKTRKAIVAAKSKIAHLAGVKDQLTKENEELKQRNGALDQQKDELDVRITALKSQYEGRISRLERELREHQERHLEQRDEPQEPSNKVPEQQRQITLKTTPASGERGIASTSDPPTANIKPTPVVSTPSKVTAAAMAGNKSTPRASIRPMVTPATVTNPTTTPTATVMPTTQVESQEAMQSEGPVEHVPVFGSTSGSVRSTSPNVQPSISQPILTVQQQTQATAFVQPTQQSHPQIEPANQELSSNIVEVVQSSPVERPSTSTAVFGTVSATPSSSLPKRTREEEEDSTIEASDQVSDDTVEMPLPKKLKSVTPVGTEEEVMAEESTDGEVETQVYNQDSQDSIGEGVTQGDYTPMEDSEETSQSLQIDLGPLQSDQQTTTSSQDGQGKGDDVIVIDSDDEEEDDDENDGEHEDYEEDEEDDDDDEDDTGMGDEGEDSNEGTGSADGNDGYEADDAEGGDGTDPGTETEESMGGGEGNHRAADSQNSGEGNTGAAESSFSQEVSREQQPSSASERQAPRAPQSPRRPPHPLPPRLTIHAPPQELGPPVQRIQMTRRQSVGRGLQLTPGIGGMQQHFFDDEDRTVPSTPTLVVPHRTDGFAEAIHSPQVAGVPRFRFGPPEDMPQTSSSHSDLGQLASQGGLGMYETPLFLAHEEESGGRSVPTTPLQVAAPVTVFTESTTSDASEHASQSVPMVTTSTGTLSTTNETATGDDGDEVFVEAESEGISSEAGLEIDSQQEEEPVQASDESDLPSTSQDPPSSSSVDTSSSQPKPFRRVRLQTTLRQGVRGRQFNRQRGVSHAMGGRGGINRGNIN

What follows are targets tested with COC(=O)C#Cc1ccccc1 [methyl 3-phenylpropiolate] (assay: log2 ratio of iodoacetamide-alkyne labeling of the cysteine site, DMSO over compound (competition); higher = stronger covalent engagement of the cysteine by the compound, active = 1 or more). Conditions: 500 µM; treatment time 1 h; system: HEK293T cell lysate.
In short: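 HEK293T lysate (2 mg/mL) was treated with DMSO or electrophile (500 µM, 1 h, ambient temperature), then iodoacetamide alkyne (1 h), clicked to sCIP-TMT reagents, pooled, trypsin-digested overnight at 37 °C, streptavidin-enriched and acid-eluted. Peptides were run on Orbitrap Eclipse LC-MS/MS with FAIMS and quantified in FragPipe. The log2 competition ratio per cysteine is mean control-channel over mean compound-channel reporter intensity. Duplicate channels and three replicates were used, and cysteines quantified in only one replicate were excluded.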

log2 ratio of iodoacetamide-alkyne labeling, active:
UniProt P0DN79_C15 2.27

log2 ratio of iodoacetamide-alkyne labeling, inactive:
EPRS C744 (UniProt P07814) 0.153
SP1 C755 (UniProt P08047) 0.59
PABPC1 C339 (UniProt P11940) 0.267
MTHFD1 C691 (UniProt P11586) 0.242
U2AF1L5 C67 (UniProt P0DN76) 0.366
EEF2 C369 (UniProt P13639) 0.24
SNRPC C9 (UniProt P09234) 0.00575
IGF2R C1408 (UniProt P11717) 0.444
EPRS C92 (UniProt P07814) 0.571
UniProt P10155_C520 0.112
CBR1 C150 (UniProt P16152) 0.0732
XRCC5 C339 (UniProt P13010) 0.156
PFKM C351 (UniProt P08237) -0.0115
RPA2 C219 (UniProt P15927) 0.0715
EEF2 C466 (UniProt P13639) 0.152
ACAA1 C177 (UniProt P09110) 0.162
MTHFD1 C195 (UniProt P11586) -0.0967
ARAF C597 (UniProt P10398) 0.904
DARS C203 (UniProt P14868) 0.147
PYGB C496 (UniProt P11216) -0.118
RNH1 C248 (UniProt P13489) 0.149
HSPD1 C237 (UniProt P10809) 0.358
IDE C966 (UniProt P14735) 0.815
RPS2 C182 (UniProt P15880) 0.0331
PLS3 C104 (UniProt P13797) 0.669
ACAA1 C218 (UniProt P09110) 0.311
HSP90AA1 C572 (UniProt P07900) 0.166
ACAA1 C87 (UniProt P09110) 0.141
TOP2A C216 (UniProt P11388) 0.425
LTA4H C200 (UniProt P09960) -0.0639
EEF2 C728 (UniProt P13639) 0.00624
TPR C1068 (UniProt P12270) 0.136
UniProt P14618_C358 -0.0609
TOP2A C405 (UniProt P11388) 0.186
EEF2 C536 (UniProt P13639) -0.284
GSPT1 C276 (UniProt P15170) 0.0355
CBR1 C122 (UniProt P16152) 0.0981

2 records drawn at random from the list so far, as already listed:
log2 ratio of iodoacetamide-alkyne labeling, inactive:
UniProt P14618_C358 -0.0609
EPRS C744 (UniProt P07814) 0.153
